From PMC10397248, “A novel N^6-Deoxyadenine methyltransferase METL-9 modulates C. elegans immunity via dichotomous mechanisms” (Cell Research, 2023)
Results are given in words; binding and its absence hold for the method and conditions named. Binding seen in cells or lysates may run through a third protein. Binding can be weak; no strength is given. Sequences can lack the tags named with a protein.

Protein sequences, listed by entry. Tags and fused reporters are not part of them. Lines headed by an entry give the natural chain unless they say otherwise; changes in a name come on top.
UniProt Q22123: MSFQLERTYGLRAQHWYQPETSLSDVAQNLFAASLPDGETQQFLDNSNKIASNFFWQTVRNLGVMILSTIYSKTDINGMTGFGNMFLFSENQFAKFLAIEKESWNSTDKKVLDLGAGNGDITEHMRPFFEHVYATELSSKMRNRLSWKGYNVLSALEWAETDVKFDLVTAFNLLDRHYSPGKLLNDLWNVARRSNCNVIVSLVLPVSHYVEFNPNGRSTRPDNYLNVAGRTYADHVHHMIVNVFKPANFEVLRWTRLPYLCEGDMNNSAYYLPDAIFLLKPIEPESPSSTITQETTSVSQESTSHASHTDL

Molecular target: T1, DVE-1::GFP (C. elegans) (UniProt Q86MI0)
T1 sequence: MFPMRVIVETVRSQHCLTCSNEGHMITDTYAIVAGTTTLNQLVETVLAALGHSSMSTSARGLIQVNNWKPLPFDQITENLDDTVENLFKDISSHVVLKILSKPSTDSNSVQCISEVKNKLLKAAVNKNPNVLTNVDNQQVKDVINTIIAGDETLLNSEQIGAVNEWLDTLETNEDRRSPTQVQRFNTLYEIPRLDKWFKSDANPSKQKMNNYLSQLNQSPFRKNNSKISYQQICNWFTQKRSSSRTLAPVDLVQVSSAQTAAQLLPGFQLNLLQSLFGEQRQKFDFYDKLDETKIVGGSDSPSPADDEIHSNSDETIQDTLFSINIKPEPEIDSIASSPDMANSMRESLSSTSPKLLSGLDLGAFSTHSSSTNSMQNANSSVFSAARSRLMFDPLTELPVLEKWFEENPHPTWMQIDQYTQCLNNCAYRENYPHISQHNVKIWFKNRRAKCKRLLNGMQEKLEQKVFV
Assay: co-IP; GFP-Trap agarose on 4 mg total lysate (RIPA buffer) of dve-1p::dve-1::gfp animals, 6 h at 4 °C, 5 washes with RIPA; blots with anti-GFP and anti-METL-9; animals with or without pathogen infection

METL-9 (from UniProt Q22123) (enzyme)
binding: binds
